According to patent US5502166A, “NMDH receptor proteins and genes encoding the same” (Mitsubishi Chemical Corporation, priority 1992, dated 1996):
At least one structure is not confirmed: it was looked up by name or label, or the drawing left a doubt.

Sequences of proteins named here, by UniProt entry; tags and fusion partners are left off. Residues count along the entry.
UniProt Q01098, 20-1239: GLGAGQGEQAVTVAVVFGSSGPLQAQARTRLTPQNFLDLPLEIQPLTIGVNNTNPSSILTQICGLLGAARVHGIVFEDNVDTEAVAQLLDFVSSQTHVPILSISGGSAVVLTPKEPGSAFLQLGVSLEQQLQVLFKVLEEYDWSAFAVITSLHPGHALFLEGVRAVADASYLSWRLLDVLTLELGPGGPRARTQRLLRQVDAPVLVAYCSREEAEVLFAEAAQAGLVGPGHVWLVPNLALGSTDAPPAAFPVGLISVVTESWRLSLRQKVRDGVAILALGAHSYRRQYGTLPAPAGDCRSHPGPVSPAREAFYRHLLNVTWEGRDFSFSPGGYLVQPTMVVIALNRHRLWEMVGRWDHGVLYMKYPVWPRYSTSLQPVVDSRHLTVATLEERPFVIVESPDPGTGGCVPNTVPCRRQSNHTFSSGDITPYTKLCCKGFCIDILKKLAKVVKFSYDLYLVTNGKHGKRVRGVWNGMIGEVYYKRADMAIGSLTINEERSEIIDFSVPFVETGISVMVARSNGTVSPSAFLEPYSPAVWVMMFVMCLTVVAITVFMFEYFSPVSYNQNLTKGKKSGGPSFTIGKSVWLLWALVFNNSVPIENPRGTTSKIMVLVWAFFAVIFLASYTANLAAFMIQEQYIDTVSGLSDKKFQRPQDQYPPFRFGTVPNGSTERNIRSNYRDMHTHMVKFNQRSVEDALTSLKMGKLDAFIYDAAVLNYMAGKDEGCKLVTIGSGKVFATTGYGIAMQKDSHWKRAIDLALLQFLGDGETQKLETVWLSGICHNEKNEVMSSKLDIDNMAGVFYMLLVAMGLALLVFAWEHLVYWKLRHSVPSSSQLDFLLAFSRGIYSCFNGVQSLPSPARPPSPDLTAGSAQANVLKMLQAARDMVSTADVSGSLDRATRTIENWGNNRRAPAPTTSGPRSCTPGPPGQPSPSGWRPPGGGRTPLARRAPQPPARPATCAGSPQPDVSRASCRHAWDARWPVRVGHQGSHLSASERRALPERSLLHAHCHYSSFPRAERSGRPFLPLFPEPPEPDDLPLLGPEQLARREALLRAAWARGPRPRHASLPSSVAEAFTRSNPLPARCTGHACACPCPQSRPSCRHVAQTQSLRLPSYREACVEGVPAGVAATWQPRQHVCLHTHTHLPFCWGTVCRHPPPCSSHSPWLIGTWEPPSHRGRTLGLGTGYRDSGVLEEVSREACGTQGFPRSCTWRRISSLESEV
UniProt Q03391, 28-1323: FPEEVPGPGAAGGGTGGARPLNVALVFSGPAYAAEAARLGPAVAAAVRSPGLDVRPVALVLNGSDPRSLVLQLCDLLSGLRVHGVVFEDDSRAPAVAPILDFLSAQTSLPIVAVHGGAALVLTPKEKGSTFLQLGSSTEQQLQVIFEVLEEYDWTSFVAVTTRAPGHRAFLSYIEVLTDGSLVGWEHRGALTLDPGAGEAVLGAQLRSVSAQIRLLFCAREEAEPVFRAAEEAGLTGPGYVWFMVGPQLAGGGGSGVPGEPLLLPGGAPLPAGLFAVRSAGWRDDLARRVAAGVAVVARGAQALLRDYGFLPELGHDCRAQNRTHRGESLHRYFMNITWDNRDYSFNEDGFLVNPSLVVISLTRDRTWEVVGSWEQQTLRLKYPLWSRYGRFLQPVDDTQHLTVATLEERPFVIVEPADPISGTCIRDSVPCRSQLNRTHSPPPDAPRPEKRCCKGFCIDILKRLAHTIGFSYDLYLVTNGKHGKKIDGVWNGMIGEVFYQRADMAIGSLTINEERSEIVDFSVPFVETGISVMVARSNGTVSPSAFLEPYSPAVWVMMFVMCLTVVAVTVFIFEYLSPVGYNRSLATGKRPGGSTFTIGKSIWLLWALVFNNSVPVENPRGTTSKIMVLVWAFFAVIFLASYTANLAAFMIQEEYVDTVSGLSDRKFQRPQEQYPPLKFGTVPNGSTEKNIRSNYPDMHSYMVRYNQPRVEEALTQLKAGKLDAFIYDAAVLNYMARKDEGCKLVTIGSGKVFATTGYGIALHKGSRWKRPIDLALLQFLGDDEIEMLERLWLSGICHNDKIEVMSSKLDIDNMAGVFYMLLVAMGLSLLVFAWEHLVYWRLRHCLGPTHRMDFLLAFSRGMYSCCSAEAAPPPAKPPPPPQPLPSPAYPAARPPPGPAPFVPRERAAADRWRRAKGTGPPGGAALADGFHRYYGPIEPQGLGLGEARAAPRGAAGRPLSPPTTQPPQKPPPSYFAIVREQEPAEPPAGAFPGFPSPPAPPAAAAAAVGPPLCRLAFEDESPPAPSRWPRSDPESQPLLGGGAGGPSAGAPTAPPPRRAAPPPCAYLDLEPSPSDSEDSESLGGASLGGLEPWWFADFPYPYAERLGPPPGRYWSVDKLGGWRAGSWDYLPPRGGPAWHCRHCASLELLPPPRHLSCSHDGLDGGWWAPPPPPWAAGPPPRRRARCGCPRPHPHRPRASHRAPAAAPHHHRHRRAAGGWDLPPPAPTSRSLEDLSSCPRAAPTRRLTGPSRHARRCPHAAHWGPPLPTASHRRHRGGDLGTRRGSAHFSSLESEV
UniProt Q01097, 27-1482: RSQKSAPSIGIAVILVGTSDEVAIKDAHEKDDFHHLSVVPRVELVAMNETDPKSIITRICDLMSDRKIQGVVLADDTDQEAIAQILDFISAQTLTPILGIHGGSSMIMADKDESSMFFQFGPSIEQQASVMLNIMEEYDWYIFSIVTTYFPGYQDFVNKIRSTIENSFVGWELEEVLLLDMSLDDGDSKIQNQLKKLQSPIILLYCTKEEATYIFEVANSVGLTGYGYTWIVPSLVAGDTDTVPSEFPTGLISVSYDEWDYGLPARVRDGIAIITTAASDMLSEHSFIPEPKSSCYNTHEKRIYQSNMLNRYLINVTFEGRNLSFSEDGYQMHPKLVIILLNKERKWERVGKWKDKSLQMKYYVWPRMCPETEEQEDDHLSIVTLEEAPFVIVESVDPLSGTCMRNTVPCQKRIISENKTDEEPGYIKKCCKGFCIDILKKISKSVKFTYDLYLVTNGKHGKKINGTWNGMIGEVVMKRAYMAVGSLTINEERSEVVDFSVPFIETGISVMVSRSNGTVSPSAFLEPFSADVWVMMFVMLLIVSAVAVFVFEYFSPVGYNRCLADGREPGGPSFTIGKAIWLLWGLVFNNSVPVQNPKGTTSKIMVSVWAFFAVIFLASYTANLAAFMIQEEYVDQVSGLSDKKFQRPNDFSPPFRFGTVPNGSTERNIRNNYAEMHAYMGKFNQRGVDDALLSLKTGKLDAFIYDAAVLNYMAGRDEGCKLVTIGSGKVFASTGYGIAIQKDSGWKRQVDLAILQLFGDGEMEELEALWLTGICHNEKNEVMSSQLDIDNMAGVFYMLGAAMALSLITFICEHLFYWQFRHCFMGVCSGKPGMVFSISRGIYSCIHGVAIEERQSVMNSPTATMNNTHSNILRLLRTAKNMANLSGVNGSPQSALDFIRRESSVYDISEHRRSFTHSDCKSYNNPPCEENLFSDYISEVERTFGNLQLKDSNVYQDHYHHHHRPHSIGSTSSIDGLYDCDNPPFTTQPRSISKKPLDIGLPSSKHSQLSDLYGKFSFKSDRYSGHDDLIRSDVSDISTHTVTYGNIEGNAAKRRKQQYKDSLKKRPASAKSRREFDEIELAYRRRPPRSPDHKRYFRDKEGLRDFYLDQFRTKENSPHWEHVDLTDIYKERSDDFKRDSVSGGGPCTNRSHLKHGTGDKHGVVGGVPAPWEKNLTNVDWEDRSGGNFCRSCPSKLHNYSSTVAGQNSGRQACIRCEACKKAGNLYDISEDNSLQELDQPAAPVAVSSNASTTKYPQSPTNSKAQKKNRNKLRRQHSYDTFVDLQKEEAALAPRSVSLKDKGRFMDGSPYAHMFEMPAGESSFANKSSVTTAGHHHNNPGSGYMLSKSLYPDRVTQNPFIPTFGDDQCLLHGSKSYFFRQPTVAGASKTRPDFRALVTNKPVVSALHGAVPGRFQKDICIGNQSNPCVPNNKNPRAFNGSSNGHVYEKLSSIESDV

Assays:
[1] = target: ε3/.zeta.1 heteromeric NMDA receptor channel (Mus musculus, UniProt P35438+Q01098); assay: Electrophysiological test in Xenopus oocytes expressing ε3 and .zeta.1 subunits; type: cell-based
Description: (§1) Then, by using the pBKSA ε2 cut by NotI and the pBKSA ε3 cut by XbaI as molds and using T3 RNA polymerase produced by BRL Co., ε2-specific mRNAs and ε3-specific mRNAs were synthesized in vitro. Transcription was carried out in the same manner as in Example 1.
(§2) Effects of the competitive antagonist were examined with 10-fold concentration of the antagonist concentration used when examining the EC50 values.

[2] = test system: ε1/.xi.1, ε2/.xi.1, ε3/.xi.1 and ε4/.xi.1 heteromeric NMDA receptor channels; assay: Comparison of ε1/, ε2/, ε3/ and ε4/.xi.1 heteromeric channels in Xenopus oocytes; type: cell-based, mouse; settings: 10-fold concentration of EC50 value
[3] = target: ε4/.zeta.1 heteromeric NMDA receptor channel (Mus musculus, UniProt P35438+Q03391); assay: Electrophysiological test in Xenopus oocytes expressing ε4 and .zeta.1 subunits; type: cell-based; settings: 500 μM APV or 100 μM 7 CK
Description: FIGS. 1(a) and 1(b) show functional expression of ε4/.zeta.1 heteromeric NMDA receptor channel cDNAs in frog oocytes. Current responses are measured at -70 mV membrane potential in normal Ringer's solution. […] FIG. 1(b) represent effects of 500 μM D-2-amino-5-phosphonovalerate (APV) (Glu/Gly +APV) and 100 μM 7-chlorokynurenate (7 CK) (Glu/Gly +7 CK) on a current response of the ε4/.zeta.1 heteromeric channel to Glu/Gly, respectively.
Current responses are measured at -70 mV membrane potential in a Ba^2+ -Ringer's solution.
Then, by using the pSPGR ε4 plasmid cut by EcoRI as a template and using SP6 RNA polymerase, ε4-specific mRNAs were synthesized in vitro. Transcription was carried out in the same manner as in Example 1.

[4] = test system: ε1/.xi.1, ε2/.xi.1 and ε3/.xi.1 heteromeric NMDA receptor channels; assay: Comparison of ε1/, ε2/ and ε3/.xi.1 heteromeric channels in Xenopus oocytes; type: cell-based, mouse; settings: 10-fold concentration used when examining EC50
Description: as §2

[5] = target: T1, ε2/.zeta.1 heteromeric NMDA receptor channel (Mus musculus, UniProt P35438+Q01097); assay: Electrophysiological test in Xenopus oocytes expressing ε2 and .zeta.1 subunits; type: cell-based
T1 construct: expressed in transfected cells; host or cells: Xenopus oocytes injected with in vitro transcribed mRNAs
Description: as §1, §2
Transcription was carried out in the same manner as in Example 1.

[6] = competitive antagonists, 100 μM Mg^2+, 100 μM Zn^2+, 1 μM (+)-MK-801

N[C@H](CCCP(=O)(O)O)C(=O)O [APV, D-2-amino-5-phosphonovalerate]
effect on response to 10 μM L-glutamate or 10 μM glycine alone ([1]; 100 μM APV, 30 μM 7 CK): disappeared | effect on response to 10 μM L-glutamate and 10 μM glycine [1, 6]: suppressed | order of sensitivity to competitive antagonist [2]: ε1/.xi.1>ε2/.xi.1>ε3/.xi.1>ε4/.xi.1 | effect on response to 10 μM L-glutamate and 10 μM glycine [3]: suppressed | order of strength in sensitivity to competitive antagonist [4]: ε1/.xi.1>ε2/.xi.1>ε3/.xi.1 | effect on response to 10 μM L-glutamate or 10 μM glycine alone ([5]; 100 μM APV, 30 μM 7 CK): disappeared | effect on response to 10 μM L-glutamate and 10 μM glycine [5, 6]: suppressed
